Laboratory results as given in US6159953A, “Anti-malarial composition and method of use” (Catholic University of America, priority 1992, dated 2000).
“Also recorded” adds a separate entry of the source. At least one compound was matched to its structure with a doubt left.

What was measured:
[1] = test system: Plasmodium falciparum, Indochina clone W2; conditions: P. falciparum, 0.1 to 1 μM, 48 hours
Protocol: In the antimalarial experiment with parasites, incorporation of radioactivity from [G-^3 H]-hypoxanthine into nucleic acids served as a measure of parasite proliferation. […] Each data point represents an average of two determinations. In the study of toxicity to human cells, proliferation of cells was determined directly by measuring the number of viable cells per well. […] Each data point represents an average of two determinations. 5-fluoro-orotate (.circle-solid.), 5-fluorouracil (.box-solid.), 5-fluorouridine (.tangle-solidup.), and 5-fluoro-2'-deoxyuridine (.diamond-solid.).
Half shaded symbols represent overlapping data points.
3. Effects of pyrimidine analogues alone or in combination with normal pyrimidine bases or nucleosides or with amino acid derivatives can be tested in malaria parasite-infected erythrocytes. Varying concentrations of pyrimidine analogues in culture medium are added to individual wells of microtitre plates [Desjardins, R. E. et al., Antimicrob. […] Parasitemic erythrocytes in culture medium are added to each well. […]
Fluoropyrimidines, dispersed in 25 μl of culture medium, were added to individual wells of a 96-well microtitre plate. […] Finally, the incorporation of 0.5 μCi of [G-^3 H]hypoxanthine (1 Ci/mmol) into nucleic acids in each well was determined; this served as a measure of parasite proliferation.

[2] = test system: Plasmodium falciparum, Sierra Leone clone D6; assay: Inhibition of P. falciparum proliferation, [G-3H]-hypoxanthine incorporation, Sierra Leone clone D6 (chloroquine-sensitive); assay type: cell-based
Protocol: 3. Effects of pyrimidine analogues alone or in combination with normal pyrimidine bases or nucleosides or with amino acid derivatives can be tested in malaria parasite-infected erythrocytes. Varying concentrations of pyrimidine analogues in culture medium are added to individual wells of microtitre plates [Desjardins, R. E. et al., Antimicrob. […] Parasitemic erythrocytes in culture medium are added to each well. […] As an alternative to adding a radioactive precursor of nucleic acid biosynthesis, the end point for determining the effects of added drugs can be the incorporation of a radioactive amino acid, e.g., [U-^14 C]-isoleucine, into parasite protein.
Fluoropyrimidines, dispersed in 25 μl of culture medium, were added to individual wells of a 96-well microtitre plate. […] Finally, the incorporation of 0.5 μCi of [G-^3 H]hypoxanthine (1 Ci/mmol) into nucleic acids in each well was determined; this served as a measure of parasite proliferation. […] In a second method, the increase in parasitemia was determined directly by smearing infected erythrocytes on microscope slides, staining with Giemsa stain, and determining the ratio of infected to non-infected erythrocytes. In a third method, parasite-infected erythrocytes were incubated with [U-^14 C]-isoleucine (0.5 μCi; 0.33 Ci/mmol), and the amount of radioactivity incorporated into precipitable proteins determined.

P. yoelii = assay: Anti-malarial activity in P. yoelii-infected mice; assay type: in vivo, P. yoelii in Swiss white mice
Protocol: FIG. 4 illustrates the effect of 5-fluoro-orotate treatment on blood parasitemia. Mice infected with P. yoelii on day 0 in experiments 1 and 2 were treated with (A) 0.2 mg/kg 5-fluoro-orotate, (B) 1 mg/kg, or (C) 5 mg/kg every 4 hours for three days. Control mice (.largecircle., .circle-solid., respectively), received no drug. Open symbols represent treatment without uridine (experiment 1: .smallcircle., .quadrature., .diamond., Δ), and filled symbols represent animals also treated with uridine (experiment 2: .circle-solid., .box-solid., .diamond-solid., .tangle-solidup.). Animals were treated with 5-fluoro-orotate on days 3 to 6. Animals were also treated with uridine in experiment 2 on days 3 to 9.
FIG. 5 illustrates the survival rate of mice infected with P. yoelii and treated with 5-fluoro-orotate, alone or in combination with uridine. Mice were treated with (A) 0.2 mg/kg 5-fluoro-orotate, (B) 1 mg/kg, or (C) 5 mg/kg. Control mice received no 5-fluoro-orotate (.largecircle., .circle-solid., respectively). Open symbols represent treatment without uridine (experiment 1: .largecircle., .quadrature., .diamond., Δ), and closed symbols represent animals also receiving uridine (experiment 2: .circle-solid., .box-solid., .diamond-solid., .tangle-solidup.).
A second in vivo test system can be used to determine if repeated administration of the pyrimidine analogue would have safe anti-malarial activity. In this test system, groups of animals are infected with malaria parasites. At a time when blood parasitemia is reached, the animals are injected with saline alone (control) or with various concentrations of one or more pyrimidine analogues alone or together with one or more rescuing pyrimidine bases or nucleosides at a single concentration, at intervals, over a period of several days. In order to determine the prophylactic effectiveness of the rescuing pyrimidine base or nucleoside, the animals are pretreated with such a base or nucleoside prior to the administration of the pyrimidine analogue. Anti-malarial activity of the treatments is estimated by determining blood parasitemia on the animals at appropriate times. The safety of the treatments is estimated by monitoring animals for weight loss and diarrhea, as these are early symptoms of pyrimidine analogue toxicity [Houghton, J. A., et al., Cancer Res., 39:2406-13 (1979)].
Swiss white mice (25-30 g) were divided into groups of five. On day 0, each mouse was infected by intraperitoneal injection of 10^5 erythrocytic forms of P. yoelii. Starting on day 3, when the blood parasitemia had reached between 5 and 12%, the mice were injected intraperitoneally every 4 hours for three consecutive days with 200 μl of various formulations. In experiment 1, three groups of mice received 0.2, 1, or 5 mg/kg of 5-fluoro-orotate per injection, respectively. An accompanying control group received saline. In experiment 2, three groups of mice received 0.2, 1, or 5 mg/kg of 5-fluoro-orotate plus 800 mg/kg of uridine in a 200 μl saline formulation. An accompanying control group received 800 mg/kg of uridine alone. In experiment 2, mice were pretreated with one injection of 800 mg/kg of uridine two hours before receiving the first injection of 5-fluoro-orotate. Additionally, even though treatment with the pyrimidine analogue stopped on day 6, these mice continued to receive 1500 mg/kg of uridine, three times a day, for three additional days (i.e., up to day 9).
Mice that received 5-fluoro-orotate subsequent to infection by P. yoelii were considered cured by the following criteria. […] In these studies, greater than 10,000 Wright's stain treated red blood cells were inspected under the microscope. […] The treated mice were from the 0.2 mg/kg group, 60 days after the original infection.

O=C(O)c1[nH]c(=O)[nH]c(=O)c1F [5-fluoro-orotate]
effect on hypoxanthine incorporation and proliferation [1]: ceased to incorporate hypoxanthine and ceased to proliferate | effectiveness compared with conventional anti-malarials [2]: a more-effective anti-malarial than all but the highly toxic (to mammalian cells as well) pyrimethamine | recurrence of infection (P. yoelii; 1 mg/kg, treatment stopped day 6): recurrence was delayed compared to the lower dosage | second surge of parasitemia (P. yoelii; 5 mg/kg): completely prevented this second surge of parasitemia | suppression of parasitemia (P. yoelii; 0.2, 1 or 5 mg/kg i.p. every 4 h, days 3 to 6, experiments 1 and 2): dose-dependent ability to suppress parasitemia; also recorded: rapid decrease in parasitemia between days 3 and 6 | infection of naive recipients of erythrocytes from treated mice (P. yoelii; 10^6 erythrocytes, 0.2 mg/kg group, 60 days after infection): no infections developed in the recipients | parasites after rechallenge (P. yoelii; after day 4, 0.2 mg/kg group): no parasites were observed in these challenged mice | parasites in blood smears (P. yoelii; as long as sixty days after initial infection): no parasites were detected in blood smears | mortality (P. yoelii; experiment 1, 0.2 mg/kg, no uridine): none of the mice that received 0.2 mg/kg of the analogue perished | death from malaria / parasites in blood (P. yoelii; experiment 1, 5 mg/kg, just prior to death): did not die of malaria; no parasites were observed in blood just prior to death | mortality from malaria (P. yoelii; experiment 2, 0.2, 1 or 5 mg/kg with uridine): no mouse receiving 0.2, 1- or 5 mg/kg of the analogue perished from the malaria | anti-malarial activity with co-administered uridine (P. yoelii; experiment 2, uridine 800 mg/kg): not compromised by the co-administration of uridine | cure and drug toxicity with uridine before or along (P. yoelii; experiment 2, with uridine): cured of malaria without suffering from drug toxicity | cure of malaria (P. yoelii; multiple doses, summary): (apparently permanently) cured of malaria by multiple doses of 5-fluoro-orotate
